These results are taken from PubChem BioAssay AID248 (DTP/NCI, 2004).

The list shows only some results of the screen, not a fair sample: it gathers tests that were run many times, whatever their T/C, doses with no T/C, and many T/C values between a quarter and a half above the control. Other doses and runs of a compound stand elsewhere. T/C is the treated group as % of the vehicle group. Some entries give survivors of the animals treated and no T/C: the source holds a T/C of zero for them, seemingly a mark for toxic or unscored doses. Some survivor counts are full or nearly so, which does not show that the dose was tolerated: the source hardly ever lists a survival T/C far under the control, and the zero likely stands for such cases as well. Counts of survivors are from the toxicity check (mostly the fifth day) where no day follows; animals may have died later. Schedule codes are those of the source, read here as Q, the interval in days (D) or hours (H), X, the number of doses. Some entries were tested several times; the values are given in rising order. Some structures stand for samples that the source files as different forms (salt, stereo form or complex); doses refer to the form tested. Some schedules carry Z or #; the key to these is not given. Where survival is the endpoint, this PubChem deposit counts one and a half times the control or more as active, and values a quarter to a half above the control carry no call in these data; other NCI protocols may use other cut-offs. Some T/C values carry the count of animals alive at the toxicity check (mostly the fifth day); where none is given, no animal had died by that day.

The assay concerns L1210 leukemia ip in BDF1 mice, survival T/C. Kind of assay: NCI In Vivo Anticancer Drug Screen. Data for tumor model L1210 Leukemia (intraperitoneal) in B6D2F1 (BDF1) mice. To be noted: higher T/C = longer survival.
Where [1] appears, read: T/C endpoint: mean survival time, dose: 320.0 mg/kg/injection, schedule: Q01DX009 (ip), vehicle: saline.
Where [2] appears, read: T/C endpoint: mean survival time, dose: 200.0 mg/kg/injection, schedule: Q01DX009 (ip), vehicle: saline.

For `C/C(=N\N=C(N)N)c1ccc(NC(=O)Nc2ccc(/C(C)=N/N=C(N)N)cc2)cc1`, the T/C was 136 % of control (T/C endpoint: mean survival time, dose: 18.0 mg/kg/injection, schedule: Q01DX009 (ip), vehicle: carboxymethylcellulose (CMC)); 123, 124, 132, 135 % of control (T/C endpoint: mean survival time, dose: 20.0 mg/kg/injection, schedule: Q01DX009 (ip), vehicle: saline); 86, 108, 135, 151 % of control (T/C endpoint: mean survival time, dose: 40.0 mg/kg/injection, schedule: Q01DX009 (ip), vehicle: saline); 145 % of control (T/C endpoint: mean survival time, dose: 63.0 mg/kg/injection, schedule: Q01DX015 (ip), vehicle: saline); 184, 190, 197, 209 % of control (T/C endpoint: mean survival time, dose: 80.0 mg/kg/injection, schedule: Q01DX009 (ip), vehicle: saline); 143, 151, 152, 234 % of control (T/C endpoint: mean survival time, dose: 160.0 mg/kg/injection, schedule: Q01DX009 (ip), vehicle: saline). Besides, the T/C is, setting by setting: (T/C endpoint: mean survival time, dose: 178.0 mg/kg/injection, schedule: Q01DX001 (ip), vehicle: other) 140 % of control; (T/C endpoint: mean survival time, dose: 178.0 mg/kg/injection, schedule: Q01DX001 (ip), vehicle: saline) 141 % of control; (T/C endpoint: mean survival time, dose: 267.0 mg/kg/injection, schedule: Q01DX001 (ip), vehicle: other) 142 % of control; (T/C endpoint: mean survival time, dose: 267.0 mg/kg/injection, schedule: Q01DX001 (ip), vehicle: saline) 127 % of control; under setting [1], 87 [4 of 6 alive] and 148 % of control [4 of 6 alive]; (T/C endpoint: mean survival time, dose: 400.0 mg/kg/injection, schedule: Q01DX001 (ip), vehicle: saline) 138 % of control. Further, the T/C is, setting by setting: (T/C endpoint: mean survival time, dose: 600.0 mg/kg/injection, schedule: Q01DX001 (ip), vehicle: saline) 148 % of control; (T/C endpoint: median survival time, dose: 25.0 mg/kg/injection, schedule: Q01DX009 (ip), vehicle: saline) 135 and 137 % of control; (T/C endpoint: median survival time, dose: 45.0 mg/kg/injection, schedule: Q03HX024 (ip), vehicle: water, evaluated on day 6) 146 % of control; (T/C endpoint: median survival time, dose: 45.0 mg/kg/injection, schedule: Q03HX024 (ip), vehicle: water, evaluated on day 50) 146 % of control; (T/C endpoint: median survival time, dose: 50.0 mg/kg/injection, schedule: Q01DX009 (ip), vehicle: saline) 140 % of control. In addition, the survivor count by setting is: (T/C endpoint: mean survival time, dose: 108.0 mg/kg/injection, schedule: Q01DX009 (ip), vehicle: water) 3 of 10; (T/C endpoint: mean survival time, dose: 180.0 mg/kg/injection, schedule: Q01DX009 (ip), vehicle: water) 5 of 10; (T/C endpoint: mean survival time, dose: 300.0 mg/kg/injection, schedule: Q01DX009 (ip), vehicle: water) 1 of 10; (T/C endpoint: mean survival time, dose: 300.0 mg/kg/injection, schedule: Q01DX015 (ip), vehicle: saline) 2 of 6; (T/C endpoint: mean survival time, dose: 320.0 mg/kg/injection, schedule: Q01DX005 (ip), vehicle: saline) 2 of 6; under setting [1], 4 of 6 and 5 of 6.

Take `Nc1nccc(N2CCCCC2)n1`: the survivor count by setting is: (T/C endpoint: mean survival time, dose: 100.0 mg/kg/injection, schedule: Q04DX003 (ip), vehicle: saline with Tween-80) 3 of 6; (T/C endpoint: mean survival time, dose: 200.0 mg/kg/injection, schedule: Q04DX003 (ip), vehicle: saline with Tween-80) 0 of 6; (T/C endpoint: mean survival time, dose: 400.0 mg/kg/injection, schedule: Q04DX003 (ip), vehicle: saline with Tween-80) 0 of 6.

Take `CCN(CC)CCOc1ccc(C)cc1`: the survivor count under setting [2] is on record as 0 of 6.

Consider `O=C(Nc1ccc(C2=NCCCN2)cc1)c1ccc(C(=O)Nc2ccc(C3=NCCCN3)cc2)cc1`, for which the T/C (T/C endpoint: mean survival time, dose: 1.0 mg/kg/injection, schedule: Q01DX010 (ip), vehicle: other) is 136 % of control [5 of 6 alive]; the T/C (T/C endpoint: mean survival time, dose: 2.0 mg/kg/injection, schedule: Q01DX010 (iv), vehicle: saline) is 141 % of control; the T/C (T/C endpoint: mean survival time, dose: 4.0 mg/kg/injection, schedule: Q01DX010 (sc), vehicle: olive oil, sesame oil, peanut oil) is 148 % of control; the T/C (T/C endpoint: mean survival time, dose: 8.0 mg/kg/injection, schedule: Q01DX010 (ip), vehicle: other) is 128 % of control; the T/C (T/C endpoint: mean survival time, dose: 8.0 mg/kg/injection, schedule: Q01DX010 (sc), vehicle: olive oil, sesame oil, peanut oil) is 130 % of control; the T/C (T/C endpoint: mean survival time, dose: 14.2 mg/kg/injection, schedule: Q01DX Z (ip), vehicle: carboxymethylcellulose (CMC)) was 135 % of control. The T/C was 131 % of control (T/C endpoint: mean survival time, dose: 16.0 mg/kg/injection, schedule: Q01DX010 (ip), vehicle: saline); 138 % of control (T/C endpoint: mean survival time, dose: 21.3 mg/kg/injection, schedule: Q01DX Z (ip), vehicle: carboxymethylcellulose (CMC)); 127 % of control (T/C endpoint: mean survival time, dose: 125.0 mg/kg/injection, schedule: Q01DX010 (oral), vehicle: other); 132 % of control (T/C endpoint: mean survival time, dose: 133.0 mg/kg/injection, schedule: Q#A X Z (oral), vehicle: saline); 126 % of control (T/C endpoint: mean survival time, dose: 222.0 mg/kg/injection, schedule: Q## X010 (oral), vehicle: saline); 128 % of control [5 of 6 alive] (T/C endpoint: mean survival time, dose: 240.0 mg/kg/injection, schedule: Q01DX Z (oral), vehicle: carboxymethylcellulose (CMC)). Besides, the T/C by setting is: (T/C endpoint: mean survival time, dose: 266.0 mg/kg/injection, schedule: Q01DX Z (oral), vehicle: saline) 125 % of control; (T/C endpoint: mean survival time, dose: 300.0 mg/kg/injection, schedule: Q#A X Z (oral), vehicle: saline) 129 % of control; (T/C endpoint: mean survival time, dose: 1800.0 mg/kg/injection, schedule: Q03DX Z (oral), vehicle: saline) 129 % of control. Also, the survivor count reads like this: (T/C endpoint: mean survival time, dose: 8.0 mg/kg/injection, schedule: Q01DX Z (iv), vehicle: other) 0 of 6; (T/C endpoint: mean survival time, dose: 16.0 mg/kg/injection, schedule: Q01DX010 (ip), vehicle: other) 0 of 6; (T/C endpoint: mean survival time, dose: 16.0 mg/kg/injection, schedule: Q01DX Z (iv), vehicle: other) 0 of 6; (T/C endpoint: mean survival time, dose: 62.5 mg/kg/injection, schedule: Q01DX010 (sc), vehicle: olive oil, sesame oil, peanut oil) 6 of 6; (T/C endpoint: mean survival time, dose: 125.0 mg/kg/injection, schedule: Q01DX010 (sc), vehicle: olive oil, sesame oil, peanut oil) 0 of 6 and 6 of 6; (T/C endpoint: mean survival time, dose: 250.0 mg/kg/injection, schedule: Q01DX010 (sc), vehicle: olive oil, sesame oil, peanut oil) 6 of 6. For the setting “T/C endpoint: mean survival time, dose: 500.0 mg/kg/injection, schedule: Q01DX001 (im), vehicle: steroid suspending solution”, the survivor count is 3 of 6.

Consider `CC[N+](CC)(CC)CCC[N+](CC)(CC)CC`, for which the survivor count by setting is: (T/C endpoint: mean survival time, dose: 100.0 mg/kg/injection, schedule: Q01DX009 (ip), vehicle: water) 6 of 6; (T/C endpoint: mean survival time, dose: 200.0 mg/kg/injection, schedule: Q01DX009 (ip), vehicle: water) 1 of 6; (T/C endpoint: mean survival time, dose: 400.0 mg/kg/injection, schedule: Q04DX003 (ip), vehicle: water) 2 of 6.

On to `COc1ccnc2ccc(C)c([N+](=O)[O-])c12`, for which the survivor count (T/C endpoint: mean survival time, dose: 400.0 mg/kg/injection, schedule: Q04DX003 (ip), vehicle: other) is on record as 2 of 6.

On to `Cc1ccccc1-n1c(O)c(N=Nc2ccc(Cl)cc2)c(=O)n(-c2ccccc2)c1=S`, for which the survivor count (T/C endpoint: mean survival time, dose: 400.0 mg/kg/injection, schedule: Q01DX001 (ip), vehicle: Klucel (hydroxypropylcellulose) (HPC)) was 0 of 6.

On to `Cc1ccc(N=N/C(=N\Nc2ccc(C)cc2)[N+](=O)[O-])cc1`, for which the survivor count (T/C endpoint: mean survival time, dose: 75.0 mg/kg/injection, schedule: Q01DX001 (ip), vehicle: acetone) was 6 of 6.

Consider `O=C1c2ccccc2C(=O)c2c1cccc2N1CCOCC1`, for which the T/C (T/C endpoint: mean survival time, dose: 100.0 mg/kg/injection, schedule: Q04DX002 (ip), vehicle: Klucel (hydroxypropylcellulose) (HPC)) was 127 % of control [2 of 2 alive].

For the molecule `O=[N+]([O-])c1cc(Cl)c(O)c([N+](=O)[O-])c1O`, the survivor count (T/C endpoint: mean survival time, dose: 150.0 mg/kg/injection, schedule: Q01DX001 (ip), vehicle: carboxymethylcellulose (CMC)) is given as 0 of 6 and the survivor count (T/C endpoint: mean survival time, dose: 300.0 mg/kg/injection, schedule: Q01DX001 (ip), vehicle: carboxymethylcellulose (CMC)) is on record as 0 of 6.

`Cc1cn(C2CC(F)C(CO)O2)c(=O)[nH]c1=O` (stereo not drawn): the T/C is 129 % of control under setting [2]; 127 % of control (T/C endpoint: mean survival time, dose: 216.0 mg/kg/injection, schedule: Q01DX009 (ip), vehicle: saline); 130 % of control (T/C endpoint: mean survival time, dose: 400.0 mg/kg/injection, schedule: Q01DX009 (ip), vehicle: saline); 135 % of control (T/C endpoint: mean survival time, dose: 600.0 mg/kg/injection, schedule: Q01DX009 (ip), vehicle: saline); 127 % of control (T/C endpoint: mean survival time, dose: 1000.0 mg/kg/injection, schedule: Q01DX009 (ip), vehicle: saline).
